# Assay results taken from PMC12040169 (PLOS Biology, 2025).
# Some of the results follow.
# Tested on: T1, CTL2-GFP (C. trachomatis L2/434/Bu, GFP-expressing)
# T1 construct: L2/434/Bu, GFP-expressing
# Design: species or system HeLa; Intracellular C. trachomatis growth in HeLa cells, bulk GFP fluorescence relative to DMSO
# Conditions: bulk GFP, single well; 28.5 h, 10 µM; inhibitor
row,Compound,% of control remaining [%]
1,COc1ccc(/C(N)=N/OC(=O)C(C)Oc2ccc(Br)cc2)cc1OC (stereo not shown) [CBK266807],129.103
2,O=C(NCCOc1ccc(-c2ccc(F)cc2)nn1)c1ccc(Br)o1 [CBK294429],150.576
3,CC(C)COc1ccc(-c2nn(-c3ccccc3)cc2CSC(=N)N)cc1 [CBK264278C],34.2042
4,O=C(c1cncnc1)N1CCN(C(=O)c2ccco2)CC1 [CBK144477],121.366
5,CN(C)c1ncccc1CNC(=O)c1ccccn1 [CBK297774],162.114
6,CN(CC1CCCOC1)C(=O)c1ncsc1Nc1ccccc1 (stereo not shown) [CBK304250],136.945
7,Cc1ccc(C)c(-c2csc3c(=O)[nH]cnc23)c1 [CBK288556],119.224
8,O=c1/c(=C/c2ccncc2)sc2n1CN(c1cccc(F)c1)CN=2 [CBK264340],119.026
9,COc1ccc(CNC(=O)N(CCc2ccccc2)CC(C)(C)CN)cc1 [CBK000463C],82.2467
10,CC(C)Nc1cncc(OCc2cccnc2)n1 [CBK115879],136.12
11,O=C1CC(/C=C/c2ccccc2)Cc2[nH]c(=O)c(C(=O)O)cc21 (stereo not shown) [CBK286933],132.429
12,Cc1nn(C)c(Cl)c1S(=O)(=O)Nc1cccnc1N1CCOCC1 [CBK062286],111.642
13,COc1ccc(C(=O)CSc2nnc(C(O)c3ccccc3)n2-c2ccccc2)cc1 (stereo not shown) [CBK265104],115.015
14,COc1ccc([C@H]2CN(C(=O)c3ccccc3)[C@@H]3CCN(Cc4ccccc4)C[C@H]23)cc1 [CBK285592],93.518
15,O=C(CSc1nnc(-c2ccc(Cl)cc2Cl)o1)c1cc2ccccc2oc1=O [CBK268698],130.424
16,Cc1cc(Cl)ccc1OCC(O)CN1CCN(Cc2ccc3c(c2)OCO3)CC1 (stereo not shown) [CBK074383],102.557
17,O=S(=O)(Nc1nnc(C(F)(F)F)s1)c1ccc(-c2ccccn2)s1 [CBK062016],100.42
18,Cc1ccc(S(=O)(=O)N(C)CC(=O)N(C)Cc2ccccc2)cc1 [CBK264201],133.237
19,Cn1c2c(c3ccccc31)CCOC21CCNCC1 [CBK081142],112.607
20,COc1cncc(-c2cc(Nc3cc(OC)c(OC)cc3C)ncn2)c1 [CBK090782],167.615
21,O=C(COc1ccc2ccccc2c1)Nc1ccc(CN2CCOCC2)cc1 [CBK265754],169.225
22,Cc1ccc2nc(-c3ccncc3)cc(C(=O)N3CCN(c4ncccn4)CC3)c2c1 [CBK267751],124.873
23,CC1=C(C(=O)Nc2ccc(Cl)cc2Cl)SCCO1 [CBK057784],112.021
24,OCC1COCCN(c2ncnc3c2CCC3)C1 (stereo not shown) [CBK304373],112.796
25,COCC(=O)N1CCC(NC(=O)N(CCc2ccccc2)Cc2ccccc2)CC1 [CBK174877],114.067
26,Fc1ccc(-c2ccc(N3CCN(c4ccncc4)CC3)nc2)cc1Cl [CBK036821],145.049
27,O=C(CSc1ccccc1)Nc1cnc(-c2ccc(F)cc2)c(-c2ccco2)n1 [CBK037196],164.768

row,Compound,% of control remaining [%]
1,COc1ccc(OCCN2C(=O)CNC2=S)cc1 [CBK007177],136.899
2,CCn1c(=O)n(CC(=O)N2CCCCCC2)c2cccnc21 [CBK283942],115.773
3,Nc1nc(CC(=O)N2CCCCC2)cs1 [CBK049866],118.475
4,Cc1n[nH]c(C)c1Sc1ccccc1/N=C/c1ccccc1O [CBK262068],122.133
5,CC(C)(N)CC(=O)N1CCN(c2ncccn2)CC1 [CBK144532],106.567
6,CC(=O)Nc1cccc(-n2ncc(-c3cccnc3)n2)c1 [CBK112811],118.249
7,CCOC(=O)N1CCC(NC(=O)c2ccc3nc4ccccc4c(=O)n3c2)CC1 [CBK294447],170.635
8,Cc1cccc(C2(Cn3cncc3-c3cnn(C)c3)CCOCC2)c1 [CBK281765],161.67
9,CCc1cccc2c1Sc1ccccc1CC2N1CCN(C)CC1 (stereo not shown) [CBK026248G],87.0576
10,Cc1noc(NS(=O)(=O)c2ccc(NC(=O)c3cc(-c4ccccc4Cl)nc4ccccc34)cc2)c1C [CBK296108],145.793
11,COc1cc(-c2nc3ccccn3c2/N=C/c2ccc(-c3ccc([N+](=O)[O-])cc3)o2)ccc1O [CBK262288],121.998
12,CS(=O)(=O)c1ccc(-c2cccc(COC3CCN(C(=O)Cc4ccc(C#N)cc4)CC3)c2)cc1 [CBK149513],85.2434
13,CC(=O)c1cc2c(N)c(C(N)=O)sc2nc1C [CBK100769],71.5157
14,COc1ccc2[nH]cc(CCNC(=O)c3cc(C)[nH]n3)c2c1 [CBK116206],115.619
15,COc1cc(C)c(CN2CCN(C(=O)COc3cc4ccccc4cc3C(=O)O)CC2)cc1OC [CBK296968],123.622
16,CCCn1c(NC(=O)C2CCCN2S(=O)(=O)CC)nc2ccccc21 (stereo not shown) [CBK295624],124.589
17,Cc1nn(C)c2ncc(C(=O)N(C)Cc3ccc(C(C)(C)C)cc3)cc12 [CBK305657],78.9365
18,COc1cccc(NC(=O)CCCC(=O)O)c1 [CBK261324],100
19,CNC(=O)CCc1ccccc1NC(=O)NCc1cnc(SC)n1C [CBK307507],121.438
20,C[C@H](Nc1nc(-c2cccc(/C=C/C(=O)O)c2)cnc1N)c1ccccc1 [CBK063754],119
21,CC(=O)c1ccc(OCc2nc(N)nc(Nc3ccccc3)n2)cc1 [CBK297155],134.633
22,CCOC(=O)CC(=O)CSc1nc(N)c2c3c(sc2n1)CCCC3 [CBK264942],82.021
23,Brc1n[nH]c2nc(NCc3ccco3)ncc12 [CBK022327],110.953
24,CCCC(=O)c1ccc(S(=O)(=O)N2CCCN(Cc3ccc(F)c(C#N)c3)CC2)cc1 [CBK062910],92.7573
25,CC(=O)C(Sc1nc(N2CCOCC2)nc(N2CCOCC2)n1)C(=O)Nc1ccccc1 (stereo not shown) [CBK266643],154.109
26,O=C(NCCN1CCC(O)(c2cccc(F)c2)CC1)C1CC=CCC1 (stereo not shown) [CBK282451],137.794
27,CC(C)(C)NC(=O)COc1ccc(CNc2nc[nH]n2)cc1 [CBK288179],121.747

row,Compound,% of control remaining [%]
1,CCCc1nc(CN2CCNC(=O)C2c2ccccc2C(F)(F)F)no1 (stereo not shown) [CBK304123],132.543
2,O=C(Nc1ccc2c(c1)OCO2)Nc1c(Br)cnc2ncccc12 [CBK105596],109.344
3,O=C1COCC(=O)N1c1ccccn1 [CBK006233],120.232
4,COC(=O)CCNc1nc(-c2ccc(Br)cc2)nc2ccccc12 [CBK263628],134.169
5,O=C(N[C@H]1CCN2C(=O)c3cc(-c4ccccc4)ccc3NC(=O)[C@H]12)C1CCCC1 [CBK289349],125.295
6,C[N+](C)(C)CCCCOC(c1ccccc1)c1ccccc1 [CBK261076I],109.868
7,Cc1cc2c(cc1C)C(O)CC1(CCN(C(=O)C3CCCC3)CC1)O2 (stereo not shown) [CBK282743],134.075
8,Cc1ccc(C(=O)NCc2ccco2)c(N2CCOCC2)n1 [CBK076410],94.5176
9,COc1cccc(Nc2[nH]nnc2C(=O)Nc2cccc(C)c2C)c1 [CBK288028],112.407
10,Clc1ccc(CSCCn2cccc2)cc1 [CBK021366],129.052
11,COc1ccc([C@H]2CN(Cc3ccccc3)[C@@H]3CCN(C(=O)Cc4ccccc4)C[C@H]23)cc1 [CBK286285],31.5422
12,Cc1cc(C)nc(Sc2nnc(-c3ccc(C)c(S(=O)(=O)N4CCOCC4)c3)c3ccccc23)n1 [CBK264400],120.907
13,O=C1Nc2ccccc2S(=O)(=O)N2CCCC12 (stereo not shown) [CBK282864],108.529
14,Cc1nn(C)c(N2CCNCC2)c1NC(=O)C(C)c1ccccc1 (stereo not shown) [CBK045929T],85.7319
15,COc1ccc2cc(CNc3ccc(CCc4nc5ccccc5n4C)cc3)c(=O)[nH]c2c1 [CBK286159],109.983
16,O=C(CN1CCC(c2ccccc2F)CC1)N1CCCC1 [CBK283578],127.043
17,COc1ccc(-c2cc(C(=O)NC3CCCCC3C)c3ccccc3n2)cc1 (stereo not shown) [CBK294459],111.181
18,CC1CCCCN1C(=O)CCc1nc2sc3c(c2c(=O)[nH]1)CCCC3 (stereo not shown) [CBK306086],63.1158
19,O=C(NC(c1ccccc1)c1ccsc1)C1CCN(CCc2ccccc2)CC1 (stereo not shown) [CBK148433],97.1403
20,Cc1ccc(OCc2occc2C(=O)N2CCCC3(CCOC3)C2)cc1 (stereo not shown) [CBK307532],116.346
21,N#Cc1ccc(Oc2cccc(/N=C/c3ccc(/C=N/c4cccc(Oc5ccc(C#N)cc5)c4)cc3)c2)cc1 [CBK261157],108.208
22,COCCN(Cc1cnn(C)c1)C(=O)Nc1cccc2nc(C)ccc12 [CBK306529],106.71
23,Cc1nc2ccc(NC(=S)N3c4ccccc4CC3C)cc2nc1C (stereo not shown) [CBK263169],96.2306
24,CC(C)CNc1cc(Cl)c(S(=O)(=O)NCC(C)C)cc1C(=O)O [CBK263405],128.588
25,CCC(C(=O)N1CCc2nc(C)[nH]c(=O)c2C1)c1ccccc1 (stereo not shown) [CBK284618],112.117
